According to PubChem BioAssay AID743255 (National Center for Advancing Translational Sciences (NCATS), 2014):
Out of some 390,000 compounds screened, about 910 (0.23%) were called active. Inconclusive results, whose numbers are uncertain, are shown with a selection of clear calls. Calls follow the shape of the dose curve; as a rule, active = well fitted inhibition curve with a large enough effect; inconclusive = small, poorly fitted or top-dose-only effect; inactive = no such curve, though single readings can be large or run the other way. Potencies of inconclusive entries are doubtful fits and often do not repeat.

Amino acid sequences for entries named in this document (tags omitted). A change or cut given only in a name is not applied to a line headed by its entry.
UniProt O94782: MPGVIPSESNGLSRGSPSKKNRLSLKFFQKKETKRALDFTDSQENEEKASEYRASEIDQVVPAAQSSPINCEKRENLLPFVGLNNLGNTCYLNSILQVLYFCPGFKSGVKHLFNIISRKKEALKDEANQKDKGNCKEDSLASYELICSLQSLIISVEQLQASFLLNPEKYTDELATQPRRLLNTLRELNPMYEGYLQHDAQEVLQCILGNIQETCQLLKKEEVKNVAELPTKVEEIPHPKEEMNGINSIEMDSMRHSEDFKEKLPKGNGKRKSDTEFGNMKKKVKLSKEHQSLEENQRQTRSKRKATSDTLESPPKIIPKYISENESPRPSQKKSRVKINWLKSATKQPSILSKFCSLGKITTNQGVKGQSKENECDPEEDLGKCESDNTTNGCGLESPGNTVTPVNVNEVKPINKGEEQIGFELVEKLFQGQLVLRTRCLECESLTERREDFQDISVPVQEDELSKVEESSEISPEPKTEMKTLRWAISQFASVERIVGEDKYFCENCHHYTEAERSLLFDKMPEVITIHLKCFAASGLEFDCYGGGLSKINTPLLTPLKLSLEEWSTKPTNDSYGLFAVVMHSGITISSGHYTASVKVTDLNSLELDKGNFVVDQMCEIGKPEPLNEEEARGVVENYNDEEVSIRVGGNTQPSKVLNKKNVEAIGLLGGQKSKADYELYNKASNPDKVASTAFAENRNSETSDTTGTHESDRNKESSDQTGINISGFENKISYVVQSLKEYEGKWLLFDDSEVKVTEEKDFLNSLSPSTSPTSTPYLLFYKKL

Target: Ubiquitin carboxyl-terminal hydrolase 1 (Homo sapiens) (UniProt O94782)
Experiment: Inhibitors of USP1/UAF1: Primary Screen; also: nearly all actives have a fitted effect of over 60% in size
Conditions: recombinant USP1/UAF1, Ub-Rhodamine cleavage fluorescence; activity change, negative = inhibition: at 57.1 µM (top of the series)
Method in brief: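 Step one: compound is pinned into 1nM USP1/UAF1 in HEPES pH 7.8 buffer with TCEP. Step two: 15 min room-temperature incubation. Step three: Ub-Rho (150nM final) starts cleavage, tracked by fluorescence over six one-minute reads.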
% is scaled to controls: 0 for no effect and ±100 for the full control effect; potency is read from the fitted curve at half-maximal effect.

Potency, inconclusive:
O=C(NCc1cc([N+](=O)[O-])ccc1O)c1cc(-c2ccncc2)nc2ccccc12 79.4 µM [inhibitor, partial curve, poor fit], CCOC(=O)C1=C(O)/C(=C/c2cc(C)n(-c3ccccc3)c2C)N=C1C 20 µM [inhibitor, partial curve], COC(=O)Cn1c2ccc(Cl)cc2c2nc(C)sc21 5.62 µM [inhibitor, single point], O=S(=O)(Nc1cccc2nsnc12)c1ccccc1 35.5 µM [inhibitor, single point], CC1(C)CC(=O)C=C(c2cccc3c2Oc2ccccc2S3)C1 56.2 µM [inhibitor, partial curve, poor fit], CC1CCN(c2cc(N)c(Cl)cc2[N+](=O)[O-])CC1 17.8 µM [inhibitor, partial curve], Cc1ccc2c(CC(=O)N(Cc3ccc(Cl)cc3)Cc3ccco3)coc2c1 0.199 µM [inhibitor, full curve, poor fit], COc1ccc(O)c(/C=C2/SC(=S)N(Cc3ccccc3)C2=O)c1 0.355 µM [inhibitor, full curve], COc1ccc(CCN2CC(C(=O)NCc3cn(C)nc3C)CCC2=O)cc1 (stereo not given) 5.01 µM [inhibitor, partial curve], CC(C(=O)O)n1cc(C#N)c(=O)[nH]c1=O (stereo not given) 39.8 µM [inhibitor, partial curve], CC[C@H](C)[C@@H](NC(=O)O[C@@H]1C(=O)c2cc(Br)ccc2O[C@H]1c1cccc(OC)c1)C(=O)OC 50.1 µM [inhibitor, partial curve, poor fit], COc1cccc(NC(=O)CSc2nnc(-c3cccs3)o2)c1 0.891 µM [inhibitor, full curve, poor fit], CC(C)CC(NC(=O)c1ccco1)C(=O)Nc1ccc2c(c1)OCCO2 (stereo not given) 28.2 µM [inhibitor, partial curve], Cc1ccc(C2CC(=O)Oc3cc(C)cc(C)c32)cc1 (stereo not given) 0.282 µM [inhibitor, full curve, poor fit], CCOC(=O)C1CCN(C(=O)c2ccc3c(c2)C(=O)N(c2ccccc2C)C3=O)CC1 5.01 µM [inhibitor, full curve], COc1cc(/C=C2\SC(=S)N(NC(=O)c3ccc(O)c(OC)c3)C2=O)ccc1O 35.5 µM [inhibitor, partial curve], CCN(CC)C(=O)Cn1c(=O)cc(C)c2c(C)nn(C)c21 79.4 µM [inhibitor, partial curve, poor fit], COc1ccc(Cn2ccnc2SCC(=O)Nc2cc(C(F)(F)F)ccc2Cl)cc1 3.98 µM [inhibitor, full curve, poor fit], O=C(NCCNC(=O)Oc1cccc2ccccc12)Oc1cccc2ccccc12 31.6 µM [inhibitor, partial curve], COc1ccc(S(=O)(=O)Nc2cccc(-n3cnnn3)c2)cc1OC 5.01 µM [inhibitor, full curve, poor fit], CC(=O)N1CCc2c(sc(NC(=O)C3CCCN3S(=O)(=O)c3cccs3)c2C(N)=O)C1 (stereo not given) 31.6 µM [inhibitor, partial curve, poor fit], CN(C)CCNc1nc2c(c(=O)[nH]c(=O)n2C)n1CC(O)COc1ccc(Cl)cc1 (stereo not given) 28.2 µM [inhibitor, single point], COc1cccc(NC(=O)CSCn2nnc3c(=O)[nH]c(Cc4ccc(F)cc4)nc32)c1 44.7 µM [inhibitor, partial curve], O=C(Nc1ccccc1Cl)C1CCN(c2nc3ccccc3[nH]2)CC1 8.91 µM [inhibitor, partial curve, poor fit], Fc1ccccc1OCc1nc(-c2ccc(-n3cccc3)cc2)no1 7.94 µM [inhibitor, partial curve], Cc1ccc(Cl)cc1N1CCN(C(=O)c2cc(S(=O)(=O)N3CCCCCC3)cn2C)CC1 56.2 µM [inhibitor, partial curve, poor fit], CCOc1ccc(/C=C/C(=O)c2ccccc2)cc1 56.2 µM [inhibitor, partial curve, poor fit], CC(=O)c1c(C)[nH]c(C(=O)OCC(=O)N(C)C)c1C 0.251 µM [inhibitor, full curve, poor fit], CC[C@H]1C/C=C\Cc2ccccc2[C@@H](C(=O)C[C@@H](O)CC(C)=O)OC1=O 44.7 µM [inhibitor, single point], O=c1ccc(-c2ccc([N+](=O)[O-])cc2)nn1-c1ccccc1 4.47 µM [inhibitor, single point], CCOc1ccc(-c2nn(-c3ccccc3)cc2C2NC(=O)NC(C)=C2C(=O)OC(C)C)cc1C (stereo not given) 50.1 µM [inhibitor, partial curve, poor fit]

Activity change, negative = inhibition, inactive:
CC(CNC(=O)Cn1c(-c2cccs2)cc2ccccc21)c1ccccc1 (stereo not given) 1.62%, O=c1ccc(N=Nc2ccccc2)ccc1O -8.48%, COc1ccc(NC(=O)Cn2cc(C(=O)c3ccco3)c3ccccc32)cc1 -0.139%, O=C(Nc1ccc(CN2CCCCC2)cc1)Nc1ccc(Br)cc1Cl -5.63%, COc1ccccc1N1CCN(c2ccc(-c3nc(-c4ccccc4)no3)cc2[N+](=O)[O-])CC1 -24.4%, COc1cccc(Nc2sc(C(=O)c3ccc(F)cc3)c(N)c2C(=O)NCc2ccc(C)cc2)c1 6.17%, COc1ccc(NS(=O)(=O)c2ccc3c(c2)n(C)c(=O)n3C)cc1 7.29%, COc1ccc(NC(=O)C2CCCCN2N)cc1OC (stereo not given) -19.3%, COc1ccc(S(=O)NC2CCCCC2)c(OC)c1C (stereo not given) -0.0202%
